Assay [1] has as its target AtLORE-ECD-TMD (AtLORE truncation lacking the intracellular domain) (Arabidopsis thaliana). The experiment in a line: FRET or BRET.
In assay [2] the target is AtLORE-TMD-ICD-Km (AtLORE truncation lacking the extracellular domain, kinase-mutated) (Arabidopsis thaliana). In words: FRET or BRET.
Assay [3] addresses AtLORE-ECD-TMD (AtLORE truncation lacking the intracellular domain) (Arabidopsis thaliana). The experiment in a line: co-IP.
Assay [4] addresses AtLORE-TMD-ICD-Km (AtLORE truncation lacking the extracellular domain, kinase-mutated) (Arabidopsis thaliana). The experiment in a line: co-IP.
Assay [5] concerns the target AtLORE-ICD-Km (cytosolic intracellular domain of AtLORE, kinase-mutated) (Arabidopsis thaliana). In words: co-IP.

No constants are given. Whether binding was seen depends on the method and setting. In cells and extracts the contact can be indirect. Binding calls can cover weak binding; strength is not graded here.

B1: AtLORE-Km (kinase-mutated AtLORE, K516A in the conserved ATP binding site), full length (receptor, UniProt O64782 22-805)
chain: AINTSSPLSIRQTLSSPGGFYELGFFSPNNTQNQYVGIWFKKIVPRVVVWVANRDTPVTSSAANLTISSNGSLILLDGKQDVIWSTGKAFTSNKCHAELLDTGNFVVIDDVSGNKLWQSFEHLGNTMLPQSSLMYDTSNGKKRVLTTWKSNSDPSPGEFSLEITPQIPTQGLIRRGSVPYWRCGPWAKTRFSGISGIDASYVSPFSVVQDTAAGTGSFSYSTLRNYNLSYVTLTPEGKMKILWDDGNNWKLHLSLPENPCDLYGRCGPYGLCVRSDPPKCECLKGFVPKSDEEWGKGNWTSGCVRRTKLSCQAKSSMKTQGKDTDIFYRMTDVKTPDLHQFASFLNAEQCYQGCLGNCSCTAFAYISGIGCLVWNGELADTVQFLSSGEFLFIRLASSELAGSSRRKIIVGTTVSLSIFLILVFAAIMLWRYRAKQNDAWKNGFERQDVSGVNFFEMHTIRTATNNFSPSNKLGQGGFGPVYKGKLVDGKEIGVARLASSSGQGTEEFMNEITLISKLQHRNLVRLLGYCIDGEEKLLIYEFMVNKSLDIFIFDPCLKFELDWPKRFNIIQGIARGLLYLHRDSRLRVIHRDLKVSNILLDDRMNPKISDFGLARMFQGTQYQDNTRRVVGTLGYMSPEYAWAGLFSEKSDIYSFGVLMLEIISGKRISRFIYGDESKGLLAYTWDSWCETGGSNLLDRDLTDTCQAFEVARCVQIGLLCVQHEAVDRPNTLQVLSMLTSATDLPVPKQPIFAVHTLNDMPMLQANSQDFLSVNEMTESMIQGR
With B1, the binding result in assay [1] is given as “binds”; in assay [2] it was “binds”; in assay [3] it was “binds”; in assay [4] it was “binds”; in assay [5] it was “binds weakly”.

Source of the values: publication doi:10.1101/2021.09.27.461997.
